Assay results taken from publication doi:10.1101/487454.
Like-named read-outs stand apart in the source and are kept apart here. No constants are given. Whether binding was seen depends on the method and setting. In cells and extracts the contact can be indirect. Some results given as binding are weak or reduced against the parent protein; the word gives no strength. Sequences can lack the tags named with a protein.

By UniProt entry, the sequences of proteins in these tests, tags left out.
UniProt Q86VF7: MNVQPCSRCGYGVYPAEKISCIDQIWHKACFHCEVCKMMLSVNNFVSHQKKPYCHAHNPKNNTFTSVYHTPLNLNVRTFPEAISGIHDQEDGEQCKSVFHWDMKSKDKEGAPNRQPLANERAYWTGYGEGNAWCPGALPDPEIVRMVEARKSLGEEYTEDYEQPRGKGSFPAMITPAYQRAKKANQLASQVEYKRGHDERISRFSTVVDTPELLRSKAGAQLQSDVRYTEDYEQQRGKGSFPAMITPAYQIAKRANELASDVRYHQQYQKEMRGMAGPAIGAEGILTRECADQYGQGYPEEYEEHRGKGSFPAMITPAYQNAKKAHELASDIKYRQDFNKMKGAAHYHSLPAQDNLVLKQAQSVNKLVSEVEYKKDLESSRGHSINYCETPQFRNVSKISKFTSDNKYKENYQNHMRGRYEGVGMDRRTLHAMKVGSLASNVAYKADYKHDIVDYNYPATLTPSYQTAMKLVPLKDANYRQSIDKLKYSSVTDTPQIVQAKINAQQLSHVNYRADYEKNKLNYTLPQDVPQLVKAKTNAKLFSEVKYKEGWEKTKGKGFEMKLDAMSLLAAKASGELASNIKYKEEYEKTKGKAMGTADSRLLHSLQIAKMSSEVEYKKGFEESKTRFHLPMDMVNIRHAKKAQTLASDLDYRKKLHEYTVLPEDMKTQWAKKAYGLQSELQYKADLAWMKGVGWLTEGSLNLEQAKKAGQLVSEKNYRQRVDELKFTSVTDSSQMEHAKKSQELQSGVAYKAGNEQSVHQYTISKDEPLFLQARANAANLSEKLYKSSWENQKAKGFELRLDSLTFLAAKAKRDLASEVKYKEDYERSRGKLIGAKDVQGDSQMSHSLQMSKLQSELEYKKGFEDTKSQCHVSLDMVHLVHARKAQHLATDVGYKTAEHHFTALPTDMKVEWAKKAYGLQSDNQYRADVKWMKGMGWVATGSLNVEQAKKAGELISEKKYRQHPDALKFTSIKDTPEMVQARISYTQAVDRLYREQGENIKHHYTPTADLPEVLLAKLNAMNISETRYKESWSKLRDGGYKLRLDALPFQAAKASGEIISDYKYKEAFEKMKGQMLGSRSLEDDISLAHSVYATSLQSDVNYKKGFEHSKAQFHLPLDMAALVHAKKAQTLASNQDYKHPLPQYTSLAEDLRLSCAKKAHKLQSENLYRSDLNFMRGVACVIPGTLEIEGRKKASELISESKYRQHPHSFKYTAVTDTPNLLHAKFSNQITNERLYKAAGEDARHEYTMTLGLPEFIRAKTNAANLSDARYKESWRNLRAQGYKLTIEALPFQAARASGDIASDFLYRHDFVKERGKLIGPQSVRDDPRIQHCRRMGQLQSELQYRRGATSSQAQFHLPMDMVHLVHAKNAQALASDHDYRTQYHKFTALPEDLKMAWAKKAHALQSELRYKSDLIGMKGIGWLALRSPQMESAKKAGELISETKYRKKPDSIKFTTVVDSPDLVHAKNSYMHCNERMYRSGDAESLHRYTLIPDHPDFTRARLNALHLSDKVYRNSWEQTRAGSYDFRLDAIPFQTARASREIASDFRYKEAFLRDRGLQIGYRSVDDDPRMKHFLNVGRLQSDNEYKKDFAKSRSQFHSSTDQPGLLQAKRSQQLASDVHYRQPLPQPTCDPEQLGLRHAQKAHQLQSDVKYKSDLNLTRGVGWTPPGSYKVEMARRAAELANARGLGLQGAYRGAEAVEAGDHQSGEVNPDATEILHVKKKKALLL

Key:
Assay in all cases: co-IP
[1] = target: T1, KLHL40-FLAG (UniProt Q2TBA0)
T1 sequence: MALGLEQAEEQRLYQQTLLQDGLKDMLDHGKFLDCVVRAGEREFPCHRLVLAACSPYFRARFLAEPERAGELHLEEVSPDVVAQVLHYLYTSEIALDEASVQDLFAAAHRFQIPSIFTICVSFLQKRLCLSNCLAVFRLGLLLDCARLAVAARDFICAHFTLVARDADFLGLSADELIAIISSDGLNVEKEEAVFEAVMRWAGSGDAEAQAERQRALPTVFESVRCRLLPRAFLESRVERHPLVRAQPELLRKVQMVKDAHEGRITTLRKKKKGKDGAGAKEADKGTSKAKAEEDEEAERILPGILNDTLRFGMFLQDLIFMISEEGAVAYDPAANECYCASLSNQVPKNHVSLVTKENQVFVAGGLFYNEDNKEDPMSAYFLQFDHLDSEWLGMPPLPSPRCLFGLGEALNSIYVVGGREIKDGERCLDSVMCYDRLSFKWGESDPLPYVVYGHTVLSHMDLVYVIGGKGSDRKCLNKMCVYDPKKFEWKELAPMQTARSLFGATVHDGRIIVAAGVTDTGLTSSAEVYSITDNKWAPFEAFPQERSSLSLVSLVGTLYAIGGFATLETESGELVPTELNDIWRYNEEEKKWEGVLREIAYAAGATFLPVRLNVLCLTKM

[2] = target: T1, KLHL40-FLAG; remark: listed apart in the source
[3] = target: Human NRAP-V5 (human) (UniProt Q86VF7)

For “Human NRAP-V5 (from UniProt Q86VF7 1-1730)”, the binding [1] was “binds” and the binding [2] was “binds”.

B1: Human KLHL41-FLAG (protein, UniProt O60662 1-606)
chain: MDSQRELAEELRLYQSTLLQDGLKDLLDEKKFIDCTLKAGDKSLPCHRLILSACSPYFREYFLSEIDEAKKKEVVLDNVDPAILDLIIKYLYSASIDLNDGNVQDIFALASRFQIPSVFTVCVSYLQKRLAPGNCLAILRLGLLLDCPRLAISAREFVSDRFVQICKEEDFMQLSPQELISVISNDSLNVEKEEAVFEAVMKWVRTDKENRVKNLSEVFDCIRFRLMTEKYFKDHVEKDDIIKSNPDLQKKIKVLKDAFAGKLPEPSKNAAKTGAGEVNGDVGDEDLLPGYLNDIPRHGMFVKDLILLVNDTAAVAYDPTENECYLTALAEQIPRNHSSIVTQQNQIYVVGGLYVDEENKDQPLQSYFFQLDSIASEWVGLPPLPSARCLFGLGEVDDKIYVVAGKDLQTEASLDSVLCYDPVAAKWNEVKKLPIKVYGHNVISHKGMIYCLGGKTDDKKCTNRVFIFNPKKGDWKDLAPMKIPRSMFGVAVHKGKIVIAGGVTEDGLSASVEAFDLTTNKWDVMTEFPQERSSISLVSLAGSLYAIGGFAMIQLESKEFAPTEVNDIWKYEDDKKEWAGMLKEIRYASGASCLATRLNLFKLSKL
In the case of B1, the binding [3] is reported as “binds”.
